PubChem BioAssay AID504774, Drosophila RNAi Screening Center | 2011
In all, the deposit lists about 23,000 reagents; shown is a random part of those that have a named target and a result. 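Values are quantile-normalised luminescence on an arbitrary scale; higher means more cells surviving MMS.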 Reagents against one gene are numbered here. Names joined by + are all predicted targets of the reagent. Further read-outs or replicates are left out here. Reagent sequences are not shown.

Aim: 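Fly genes whose loss alters survival after alkylation damage to DNA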 (primary screen)
System: Drosophila Kc167 cells
Reagents: long dsRNA against Drosophila genes, about 0.25 µg dsRNA per well
Duration: about 6 days: 3 days knock-down, then 3 days with or without MMS
Challenge: methyl methanesulphonate 0.004% (w/v) for 3 days after knock-down
Detection: 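Viability in wells given MMS, read as ATP luminescence, normalised by quantiles plate by plate and averaged across replicates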
Direction: mean viability with MMS: higher = more surviving cells after MMS

mean viability with MMS, by gene and reagent
dom: #1 3.10e6; #2 3.31e6
CG34393: #1 3.76e6; #2 3.78e6
lic: #1 3.61e6
CG31103: #1 3.46e6
kumpel: #1 3.57e6; #2 3.46e6; #3 3.43e6; #4 3.52e6; #5 3.54e6; #6 3.66e6
mRpL30: #1 3.56e6
CG14088: #1 3.52e6
lectin-37Db: #1 3.58e6
Trs23: #1 3.49e6
Surf6: #1 3.51e6
CG3598: #1 3.54e6
tara: #1 3.54e6; #2 3.83e6
CG14448: #1 3.61e6
CG31089: #1 3.66e6
Dscam2: #1 3.56e6; #2 3.50e6; #3 3.80e6; #4 3.62e6; #5 3.05e6
CG15535: #1 3.70e6
CG13443: #1 3.67e6
CG42512 + CG32573: #1 3.57e6; #2 3.77e6; #3 3.36e6
mRpS29: #1 3.51e6
CG42307 + mus312: #1 3.80e6
t-Grip84: #1 3.64e6
dpr13: #1 3.67e6; #2 3.43e6
TppII: #1 3.30e6
betaNACtes6: #1 3.59e6
DCTN6-p27: #1 3.64e6; #2 3.42e6
nullo: #1 3.50e6

9 entries from above in another layout.
| gene | dsRNA no. | mean viability with MMS |
| --- | --- | --- |
| Dscam2 | 3 | 3.80e6 |
| Dscam2 | 4 | 3.62e6 |
| Dscam2 | 5 | 3.05e6 |
| CG15535 | 1 | 3.70e6 |
| CG13443 | 1 | 3.67e6 |
| CG42512 + CG32573 | 1 | 3.57e6 |
| CG42512 + CG32573 | 2 | 3.77e6 |
| CG42512 + CG32573 | 3 | 3.36e6 |
| mRpS29 | 1 | 3.51e6 |

More entries follow.
mean viability with MMS, by gene and reagent
mge: #1 3.51e6
HmgZ: #1 3.30e6; #2 3.53e6
wg: #1 3.48e6
mAcon1: #1 3.54e6
CG13540: #1 3.42e6
I-2: #1 3.32e6; #2 3.76e6
Sodh2: #1 3.70e6
CG5062: #1 3.40e6
l(3)mbt: #1 3.29e6
CG34178 + CG34177: #1 3.54e6
CG14326: #1 3.24e6
dysc: #1 3.40e6; #2 3.37e6; #3 3.52e6; #4 3.38e6
Alms1a: #1 3.56e6
CG11367: #1 3.73e6
beag: #1 3.40e6
Epp: #1 3.46e6
tomboy20: #1 3.48e6
Pfdn5: #1 3.59e6
CG5727: #1 3.86e6
Vps20: #1 3.57e6
CG34234 + Dh44-R2: #1 3.53e6
